Reference: publication PMC3795697
The exact form of at least one protein or probe is not confirmed. A weaker result is weaker than the reference pair of the same experiment. Protein sequences can lack the tags named with them.

Molecular target: T1, BCARR (26 kDa CBS domain protein, CBSDP) (Lactobacillus helveticus CM4) (UniProt U6BZW9)
T1 sequence (looked up, limits assumed): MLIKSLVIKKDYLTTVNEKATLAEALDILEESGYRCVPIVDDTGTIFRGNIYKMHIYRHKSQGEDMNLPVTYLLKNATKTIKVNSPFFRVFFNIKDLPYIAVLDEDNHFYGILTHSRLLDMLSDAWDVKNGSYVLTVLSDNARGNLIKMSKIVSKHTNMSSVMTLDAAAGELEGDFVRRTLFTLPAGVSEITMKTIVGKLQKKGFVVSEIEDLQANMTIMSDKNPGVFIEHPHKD
Assay: EMSA
Conditions: EMSA: 20 mM Tris-HCl pH 8.5, 10 mM MgCl2, 100 mM KCl, 1 mM DTT, 0.01% BSA, 10 mM BCAAs or single amino acids, 30 C 10 min, footprinting same buffer, DNase I 37 C 1.5 min, recombinant protein, probe letters rebuilt from the primers and the genome

[1] = 10 mM BCAAs, 2.3 uM BCARR, slight shift, label: 32P 5' end

| Sequence | binding result (10 mM BCAAs) | binding result [1] | further results |
| --- | --- | --- | --- |
| TTCTTGTCGGCATGGTATCCAGGCACGACAGGAACAACCACATCGCTAAATGATTTCTTGATCTGATTGCCAAGGAGTGGTGTACTTGCCATCTTCGATGATCTTGCCGGTGATTAGACTAGCGGTAACGGTACTCTTAAAGTCAATGGTTTGAACATTGTCCTTAGGTGTTAATTCACCTGCACCATCATATTTAACGACAAAATTGATTTGACGAGAATATGCACTTGGATCAACCAATTCATTAGGATGATCCGCATCAACGCGAATAATTGGCATTTTCATTGTAATGATGAAAACTGGAACAGTGG (double strand) [pepCE upstream] | binds | – | – |
| TTTCAAGATCAACTGTACATTCATGATAGTCTATCTTTGTTTTGAAAAACAAATTTATTTGTATCTTATTTTTAGTAAGAATCAAACATTTCTGATAAAATATTATTAATCAATTTAATTAAGGGAGAGAAATATATGAA (double strand) [pepV -136/+4] | – | – | binding result (10 mM BCAAs, 2.3 uM BCARR (text: 3 uM), highly shifted, label: 32P 5' end): binds |
| ATGTACAGTTGATCTTGAAATATCACCGGAAGTAAAAAGAAATGAGGTAAAGAGCAACCATGCATCGAAAAAATTCTTCTTATATAGTTTGATAGGACTC (double strand) [pepV -216/-116] | – | binds more weakly | – |
| CTAGTAATAGATCACTCTGCTTTTCCAAAGGTCATTCCTCCATTTATAGCTTTTTTATTAAAAGCTGTTTAATCTTTTTTATTTATTTTCTAATTATAAACACAAAGCTGGTCGTATGCAAATAACTACACGAATTTTTTTCAGAAAATTAACCTTGATGTGACTTAATATATGATACAGCGTCACCAACAGTCTTAATTTTCTCAGCTTCGTCATCAGGAATTTCTGAGCCAAATTCATCTTCAAGTT (double strand) [dppD upstream] | binds | – | – |
| TCCATCCTATCGCTTAAAGGTATAATGAATAAAAATAGCAAAAAAGAGCAGAGTCCTATCAAACTATATAAGAAGAATTTTTTCGATGCATGGTTGCTCT (double strand) [pepV -266/-166] | – | binds more weakly | – |
| GCTACAAACATTGTGTCAGCTAAGTTATAAATCATCGTGGTAATCATCCCCAGCACCACAGGAAAAGCTAATTTAAAATAGACTTTTTTATAGGTGCTTTTGCAAATAATTCATCCATAAATTTTTCCTACTCTCATTCAAATAATTCTTACCAATTTATTATATTCTTTTTTGAATCTGCTTATGGCTGAGATTTTTGAAAAATACTTTAATTAAGAAAAGCAATCTATTATACTGAATACAATATGAAATTTAAATGAAAAGGTGGCGCAAGATATGAGTTTTTACGATTTAAGTTACGAGCAAG (double strand) [pepT2 upstream] | binds | – | – |
| CCGTCAGCATCAACAGTTGCTAAGTAAACTAAGTTATTCTTGAAAAGATTTACTTGTTCTTCAGTAAGCTTGTTAGTATTTAATTTCTTCATAGATAATACATCCCTTCTGTTTTATCAATACACTATAAGTATACATCAATTTAATAGCAGGTGTTAGAGATGTGCTTACATCCTTATTTTTATTTAACAAAATGCTTTTATTACTATAAATAAGCAAAATTAAATAAGCAAAATTAAATTTTCATTTTATTTTAAAAAATGCTATGATTTAACCAACTAAAAAACAAAGGAGAAAACATATGAATTTAGCAAAAATCCGCG (double strand) [pepO2 upstream] | binds | – | – |
| TCCATCCTATCGCTTAAAGGTATAATGAATAAAAATAGCAAAAAAGAGCAGAGTCCTATCAAACTATATAAGAAGAATTTTTTCGATGCATGGTTGCTCTTTACCTCATTTCTTTTTACTTCCGGTGATATTTCAAGATCAACTGTACATTCATGATAGTCTATCTTTGTTTTGAAAAACAAATTTATTTGTATCTTATTTTTAGTAAGAATCAAACATTTCTGATAAAATATTATTAATCAATTTAATTAAGGGAGAGAAATATATGAATTTAGACTACAAGAAATTAGCTGCTGCTAAAAAAGATGA (double strand) [pepV upstream 309 bp] | – | – | binding result (10 mM BCAAs (Val, Leu, Ile), shift at 1.5 uM BCARR): binds; binding result (10 mM Ile (most effective)): binds; binding result (10 mM Leu): binds; binding result (10 mM Val): binds; binding result (no BCAAs, shift at 3 uM but not 1.5 uM BCARR): binds more weakly |
| TCATCTTTTTTAGCAGCAGCTAATTTCTTGTAGTCTAAATTCATATATTTCTCTCCCTTAATTAAATTGATTAATAATATTTTATCAGAAATGTTTGATTCTTACTAAAAATAAGATAC (double strand) [pepV -76/+43] | – | binds more weakly | – |
